Data on 17 targets can be found in the supplement of paper PMC10849652.

Sequences of proteins named here, by UniProt entry; tags and fusion partners are left off. A change or cut given only in a name is not applied to a line headed by its entry.
UniProt Q8TCT8: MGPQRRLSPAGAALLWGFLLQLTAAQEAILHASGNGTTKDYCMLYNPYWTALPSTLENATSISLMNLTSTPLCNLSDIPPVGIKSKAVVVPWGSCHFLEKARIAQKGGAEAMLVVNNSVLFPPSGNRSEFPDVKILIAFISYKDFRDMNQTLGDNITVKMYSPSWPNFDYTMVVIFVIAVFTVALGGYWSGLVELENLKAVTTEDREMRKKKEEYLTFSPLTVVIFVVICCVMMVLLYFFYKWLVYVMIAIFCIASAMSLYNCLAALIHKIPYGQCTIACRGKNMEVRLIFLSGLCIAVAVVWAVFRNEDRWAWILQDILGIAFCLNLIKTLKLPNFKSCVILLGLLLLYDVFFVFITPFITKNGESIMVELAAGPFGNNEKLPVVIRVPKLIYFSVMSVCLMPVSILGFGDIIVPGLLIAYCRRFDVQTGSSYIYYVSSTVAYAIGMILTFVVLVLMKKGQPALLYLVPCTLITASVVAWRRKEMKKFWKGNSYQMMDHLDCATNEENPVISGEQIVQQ
UniProt Q9BWG4: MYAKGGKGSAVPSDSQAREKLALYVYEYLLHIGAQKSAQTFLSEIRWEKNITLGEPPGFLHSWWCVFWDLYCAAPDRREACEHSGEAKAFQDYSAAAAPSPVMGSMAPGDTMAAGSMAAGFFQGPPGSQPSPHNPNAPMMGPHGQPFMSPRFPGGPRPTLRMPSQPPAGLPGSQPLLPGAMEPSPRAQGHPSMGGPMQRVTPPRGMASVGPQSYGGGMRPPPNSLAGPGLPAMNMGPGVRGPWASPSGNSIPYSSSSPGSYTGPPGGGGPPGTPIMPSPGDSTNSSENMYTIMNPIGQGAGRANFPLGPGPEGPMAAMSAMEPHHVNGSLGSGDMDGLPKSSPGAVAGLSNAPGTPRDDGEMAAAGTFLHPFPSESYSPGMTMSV
UniProt Q14849, whole entry, looked up: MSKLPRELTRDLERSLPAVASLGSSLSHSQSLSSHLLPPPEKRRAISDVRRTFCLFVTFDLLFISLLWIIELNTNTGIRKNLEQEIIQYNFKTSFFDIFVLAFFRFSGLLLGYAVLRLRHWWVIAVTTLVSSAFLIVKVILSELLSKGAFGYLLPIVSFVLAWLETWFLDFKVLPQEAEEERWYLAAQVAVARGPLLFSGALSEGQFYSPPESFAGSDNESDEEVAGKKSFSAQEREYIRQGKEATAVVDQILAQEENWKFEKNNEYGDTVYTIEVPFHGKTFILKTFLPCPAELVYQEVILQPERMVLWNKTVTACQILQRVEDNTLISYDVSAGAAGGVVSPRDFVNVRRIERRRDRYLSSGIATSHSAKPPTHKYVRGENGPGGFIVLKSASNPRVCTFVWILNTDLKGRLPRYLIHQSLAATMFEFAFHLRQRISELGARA
UniProt Q9BXP5: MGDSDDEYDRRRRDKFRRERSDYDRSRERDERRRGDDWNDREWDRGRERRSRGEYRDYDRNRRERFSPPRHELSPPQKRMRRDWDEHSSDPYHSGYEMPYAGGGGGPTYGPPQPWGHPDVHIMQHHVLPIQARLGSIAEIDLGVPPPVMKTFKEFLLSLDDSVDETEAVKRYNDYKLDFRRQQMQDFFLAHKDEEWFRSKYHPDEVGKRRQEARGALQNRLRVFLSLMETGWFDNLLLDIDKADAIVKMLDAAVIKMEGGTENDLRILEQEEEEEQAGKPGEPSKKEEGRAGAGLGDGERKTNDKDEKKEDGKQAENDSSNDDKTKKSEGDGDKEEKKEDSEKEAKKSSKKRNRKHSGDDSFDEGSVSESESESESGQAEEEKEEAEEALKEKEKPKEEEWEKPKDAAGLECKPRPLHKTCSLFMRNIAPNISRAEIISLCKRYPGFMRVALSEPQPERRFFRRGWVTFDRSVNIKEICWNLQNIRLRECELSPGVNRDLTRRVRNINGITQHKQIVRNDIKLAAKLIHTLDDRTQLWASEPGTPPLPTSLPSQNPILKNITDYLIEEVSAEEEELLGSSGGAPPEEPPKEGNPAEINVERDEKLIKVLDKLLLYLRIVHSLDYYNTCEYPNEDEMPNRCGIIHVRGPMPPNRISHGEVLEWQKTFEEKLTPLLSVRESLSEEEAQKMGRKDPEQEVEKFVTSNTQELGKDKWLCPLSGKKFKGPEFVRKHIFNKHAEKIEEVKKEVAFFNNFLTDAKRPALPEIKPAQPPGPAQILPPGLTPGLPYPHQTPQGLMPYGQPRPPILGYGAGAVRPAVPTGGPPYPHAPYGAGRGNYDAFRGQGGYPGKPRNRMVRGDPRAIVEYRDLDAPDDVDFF
UniProt Q08945, whole entry, looked up: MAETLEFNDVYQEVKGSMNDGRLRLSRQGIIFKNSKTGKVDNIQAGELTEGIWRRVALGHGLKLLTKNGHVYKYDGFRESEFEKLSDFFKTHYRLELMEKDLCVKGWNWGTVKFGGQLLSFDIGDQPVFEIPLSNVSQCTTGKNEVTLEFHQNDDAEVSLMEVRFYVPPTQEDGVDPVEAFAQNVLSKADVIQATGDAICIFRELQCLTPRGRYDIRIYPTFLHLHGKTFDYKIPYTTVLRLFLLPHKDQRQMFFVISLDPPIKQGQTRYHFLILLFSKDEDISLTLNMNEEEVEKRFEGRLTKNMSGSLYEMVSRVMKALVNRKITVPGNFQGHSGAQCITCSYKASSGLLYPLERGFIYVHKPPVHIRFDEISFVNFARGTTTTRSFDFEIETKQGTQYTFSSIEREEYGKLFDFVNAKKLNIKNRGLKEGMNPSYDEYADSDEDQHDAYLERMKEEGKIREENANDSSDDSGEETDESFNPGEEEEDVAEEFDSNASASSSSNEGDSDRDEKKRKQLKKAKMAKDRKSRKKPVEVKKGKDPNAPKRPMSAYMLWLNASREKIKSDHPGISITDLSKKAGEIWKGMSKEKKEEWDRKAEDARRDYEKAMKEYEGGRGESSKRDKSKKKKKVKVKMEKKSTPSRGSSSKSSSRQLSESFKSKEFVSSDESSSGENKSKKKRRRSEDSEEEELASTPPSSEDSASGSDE
UniProt P35270: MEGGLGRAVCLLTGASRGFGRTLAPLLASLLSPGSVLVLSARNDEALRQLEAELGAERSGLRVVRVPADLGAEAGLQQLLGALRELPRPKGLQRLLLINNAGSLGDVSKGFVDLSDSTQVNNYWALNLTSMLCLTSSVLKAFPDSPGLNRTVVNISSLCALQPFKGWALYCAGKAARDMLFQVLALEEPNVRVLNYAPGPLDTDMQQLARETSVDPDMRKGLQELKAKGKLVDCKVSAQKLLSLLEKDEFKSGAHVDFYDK
UniProt P84103: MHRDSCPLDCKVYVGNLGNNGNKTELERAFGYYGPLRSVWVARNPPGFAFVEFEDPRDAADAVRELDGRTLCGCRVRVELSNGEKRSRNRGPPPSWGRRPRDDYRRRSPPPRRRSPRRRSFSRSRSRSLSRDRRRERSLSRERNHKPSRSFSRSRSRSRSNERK
UniProt Q6ZRS2, whole entry, looked up: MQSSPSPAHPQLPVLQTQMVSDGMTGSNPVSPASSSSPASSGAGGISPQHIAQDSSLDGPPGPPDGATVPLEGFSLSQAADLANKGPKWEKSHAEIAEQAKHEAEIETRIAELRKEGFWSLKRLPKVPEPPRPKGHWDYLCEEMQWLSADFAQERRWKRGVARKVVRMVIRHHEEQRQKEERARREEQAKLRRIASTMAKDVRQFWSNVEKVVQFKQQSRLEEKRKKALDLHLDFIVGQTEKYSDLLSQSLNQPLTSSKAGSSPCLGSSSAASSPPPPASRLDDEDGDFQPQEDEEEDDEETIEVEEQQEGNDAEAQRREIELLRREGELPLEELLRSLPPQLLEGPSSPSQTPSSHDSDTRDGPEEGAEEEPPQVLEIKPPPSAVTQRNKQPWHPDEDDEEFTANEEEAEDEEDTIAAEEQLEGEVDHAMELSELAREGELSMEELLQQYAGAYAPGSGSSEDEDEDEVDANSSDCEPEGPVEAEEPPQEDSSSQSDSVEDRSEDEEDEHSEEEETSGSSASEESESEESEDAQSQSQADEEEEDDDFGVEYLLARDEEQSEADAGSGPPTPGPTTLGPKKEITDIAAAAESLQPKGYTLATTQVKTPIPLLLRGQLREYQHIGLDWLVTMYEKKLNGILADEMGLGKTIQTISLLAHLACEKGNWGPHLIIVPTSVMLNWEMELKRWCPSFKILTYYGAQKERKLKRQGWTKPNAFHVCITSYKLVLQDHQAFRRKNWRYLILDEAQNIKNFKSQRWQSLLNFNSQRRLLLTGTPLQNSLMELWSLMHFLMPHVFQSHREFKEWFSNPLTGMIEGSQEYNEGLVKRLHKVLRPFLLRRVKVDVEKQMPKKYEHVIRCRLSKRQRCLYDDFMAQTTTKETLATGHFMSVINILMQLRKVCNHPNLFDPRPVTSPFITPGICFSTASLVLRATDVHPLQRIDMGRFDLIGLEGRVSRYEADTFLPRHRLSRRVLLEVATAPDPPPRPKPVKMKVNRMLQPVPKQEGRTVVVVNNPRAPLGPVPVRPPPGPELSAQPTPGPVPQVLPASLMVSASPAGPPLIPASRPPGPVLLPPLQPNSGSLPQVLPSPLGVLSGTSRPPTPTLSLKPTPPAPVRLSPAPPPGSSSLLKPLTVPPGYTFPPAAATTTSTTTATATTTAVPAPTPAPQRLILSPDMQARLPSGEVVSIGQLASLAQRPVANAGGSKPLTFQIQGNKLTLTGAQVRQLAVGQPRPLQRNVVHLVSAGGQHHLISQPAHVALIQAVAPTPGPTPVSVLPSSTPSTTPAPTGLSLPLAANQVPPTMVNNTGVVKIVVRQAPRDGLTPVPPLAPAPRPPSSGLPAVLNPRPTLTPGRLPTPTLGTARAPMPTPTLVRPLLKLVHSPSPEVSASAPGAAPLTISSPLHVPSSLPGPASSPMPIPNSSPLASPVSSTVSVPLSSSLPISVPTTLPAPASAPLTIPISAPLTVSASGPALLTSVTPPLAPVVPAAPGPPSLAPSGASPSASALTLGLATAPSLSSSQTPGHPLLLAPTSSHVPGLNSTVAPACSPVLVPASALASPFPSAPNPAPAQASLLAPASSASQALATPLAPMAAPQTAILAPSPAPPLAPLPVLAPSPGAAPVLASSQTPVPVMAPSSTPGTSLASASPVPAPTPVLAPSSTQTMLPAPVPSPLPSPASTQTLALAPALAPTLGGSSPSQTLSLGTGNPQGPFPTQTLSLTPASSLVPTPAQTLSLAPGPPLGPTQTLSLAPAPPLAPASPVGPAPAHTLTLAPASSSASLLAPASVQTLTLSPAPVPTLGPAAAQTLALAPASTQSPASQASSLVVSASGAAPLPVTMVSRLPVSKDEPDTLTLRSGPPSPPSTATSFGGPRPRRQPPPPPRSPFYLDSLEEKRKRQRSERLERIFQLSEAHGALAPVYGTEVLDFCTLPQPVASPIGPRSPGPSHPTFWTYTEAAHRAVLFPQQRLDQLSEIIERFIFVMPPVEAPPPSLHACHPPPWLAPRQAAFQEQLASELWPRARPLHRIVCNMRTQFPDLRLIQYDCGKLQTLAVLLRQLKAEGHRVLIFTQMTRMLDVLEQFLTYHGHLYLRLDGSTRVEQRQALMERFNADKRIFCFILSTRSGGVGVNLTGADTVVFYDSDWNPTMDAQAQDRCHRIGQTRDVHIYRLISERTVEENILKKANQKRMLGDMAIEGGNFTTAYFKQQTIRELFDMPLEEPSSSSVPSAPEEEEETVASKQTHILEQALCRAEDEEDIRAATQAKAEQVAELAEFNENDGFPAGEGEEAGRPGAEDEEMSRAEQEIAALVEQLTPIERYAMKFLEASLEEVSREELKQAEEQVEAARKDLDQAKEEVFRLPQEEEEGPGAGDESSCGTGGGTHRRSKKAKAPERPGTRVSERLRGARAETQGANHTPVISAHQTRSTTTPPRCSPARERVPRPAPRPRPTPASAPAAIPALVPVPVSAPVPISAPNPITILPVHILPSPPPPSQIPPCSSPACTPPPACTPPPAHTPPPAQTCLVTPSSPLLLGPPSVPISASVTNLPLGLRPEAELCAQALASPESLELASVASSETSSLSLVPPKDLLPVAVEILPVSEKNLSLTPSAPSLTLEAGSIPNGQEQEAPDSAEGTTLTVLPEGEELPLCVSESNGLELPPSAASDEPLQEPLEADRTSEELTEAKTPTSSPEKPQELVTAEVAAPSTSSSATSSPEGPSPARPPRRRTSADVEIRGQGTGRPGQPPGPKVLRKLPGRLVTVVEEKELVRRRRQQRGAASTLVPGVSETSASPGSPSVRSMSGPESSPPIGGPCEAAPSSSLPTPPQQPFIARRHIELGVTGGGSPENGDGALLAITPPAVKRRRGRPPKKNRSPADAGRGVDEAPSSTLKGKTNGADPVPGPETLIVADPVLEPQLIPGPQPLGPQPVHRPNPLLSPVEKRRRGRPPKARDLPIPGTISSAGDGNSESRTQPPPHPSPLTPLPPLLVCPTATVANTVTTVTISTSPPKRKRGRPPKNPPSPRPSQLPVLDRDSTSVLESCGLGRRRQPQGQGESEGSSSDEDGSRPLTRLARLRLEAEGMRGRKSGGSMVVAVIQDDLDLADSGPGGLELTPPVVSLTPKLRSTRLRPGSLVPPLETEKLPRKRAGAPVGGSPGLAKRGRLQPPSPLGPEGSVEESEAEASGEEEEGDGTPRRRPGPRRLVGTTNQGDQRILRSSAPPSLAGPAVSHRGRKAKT

The list shows a part of the results.

What all share (assay): log2 fold change, soluble protein after heating vs DMSO (PISA); higher = thermal stabilisation; K562 cells, 10 uM, 30 min; active = over 0.2 and 3.5 SD of the protein, either way, in both replicates (recomputed)
Compound in test [1]: COC1=CC=C(C=C1)CN2C=CC3=C2C=C(C=C3)C(=O)NO
The method, boiled down: (§1)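 K562 cells at 2×10^6 cells/mL were exposed to 10 μM compound for 30 min, then aliquots were heated for 3 min across 48°C-58°C, pooled, and extracted in PBS containing 0.5% NP-40 at 4°C. The supernatant after 21,000xg for 90 min was taken as soluble protein and measured by TMTpro 16plex LC-MS/MS with channel sums equalised. Thermal stability is reported relative to control samples, with values from duplicates. Fold changes are given on a log2 scale.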

Compound in a further test: CON(C)C(=O)N1N=C(c2cc(F)ccc2F)S[C@@]1(CCCN)c1ccccc1 [filanesib]
The method, boiled down: as §1

Compound in the next test: CO[C@H]1C[C@@H]2CC[C@@H](C)[C@@](O)(O2)C(=O)C(=O)N2CCCC[C@H]2C(=O)O[C@H]([C@H](C)C[C@@H]2CC[C@H](n3cnnn3)[C@H](OC)C2)CC(=O)[C@H](C)/C=C(\C)[C@@H](O)[C@@H](OC)C(=O)[C@H](C)C[C@H](C)/C=C/C=C/C=C/1C [zotarolimus]
Put shortly: as §1

Compound in the next test: CS(=O)(=O)N1CCN(Cc2cc3nc(-c4cccc5[nH]ncc45)nc(N4CCOCC4)c3s2)CC1 [pictilisib]
The method, boiled down: as §1

Compound in another test: COc1cc(C(=O)O)ccc1NC(=O)[C@@H]1N[C@@H](CC(C)(C)C)[C@](C#N)(c2ccc(Cl)cc2F)[C@H]1c1cccc(Cl)c1F [idasanutlin]
Put shortly:
as §1

Compound in a further test: COc1cc(Nc2ncc3c(n2)-c2ccc(Cl)cc2C(c2c(F)cccc2OC)=NC3)ccc1C(=O)O [alisertib]
Put shortly:
as §1

Compound in test [2]: COc1cc2nc(-c3cc(F)ccc3O)nc(N[C@@H]3CNC[C@H]3C(C)(C)O)c2cc1OC
The method, boiled down: as §1

Compound in test [3]: COc1cccc2cc(-c3nc([C@H]4CC[C@H](C(=O)O)CC4)n4ncnc(N)c34)[nH]c12
Put shortly: as §1

Compound in another test: CS(=O)(=O)CCNCc1ccc(-c2ccc3ncnc(Nc4ccc(OCc5cccc(F)c5)c(Cl)c4)c3c2)o1 [lapatinib]
Put shortly: as §1

Compound in a further test: COc1cc2ncnc(Nc3ccc(F)c(Cl)c3)c2cc1OCCCN1CCOCC1 [gefitinib]
Put shortly:
as §1

For the target SPIRE2 (UniProt Q8WWL2), the log2 fold change in test [1] is inactive: -0.217; with filanesib, inactive: 0.104; with zotarolimus, inactive: -0.405; in the test with pictilisib, inactive: 0.139.

Regarding SPPL2A (UniProt Q8TCT8), the log2 fold change is inactive: -0.061 in test [1]; inactive: -0.059 in the test with filanesib; inactive: -0.064 with zotarolimus; inactive: 0.078 with idasanutlin; inactive: -0.06 with alisertib; inactive: -0.047 in test [2]. In addition, the log2 fold change in test [3] is inactive: 0.129; with lapatinib it was inactive: 0.003; with pictilisib it was inactive: -0.011.

With SRRD (UniProt Q9UH36), the log2 fold change in test [1] is inactive: -0.08; with filanesib, inactive: -0.038; in the test with idasanutlin, inactive: -0.375; in the test with alisertib, inactive: -0.224; in [2], inactive: -0.047; with gefitinib it was inactive: 0.192. In addition, the results for the log2 fold change (in test [3]; in the test with lapatinib) were inactive: 0 and inactive: 0.001, respectively.

As to SSBP4 (UniProt Q9BWG4), the log2 fold change in test [1] was inactive: -0.065; in the test with filanesib, inactive: -0.601; in the test with idasanutlin it was inactive: 0.122; with alisertib, inactive: 0.018; in test [2], inactive: 0.076; with gefitinib, inactive: -0.001. In addition, the log2 fold change in test [3] is inactive: 0.029; with lapatinib, inactive: -0.145; in the test with pictilisib, inactive: 0.117.

As for STK11 (UniProt Q15831), the log2 fold change in [1] is inactive: 0.007; in the test with filanesib, inactive: 0.026; in the test with zotarolimus, inactive: -0.011; with idasanutlin, inactive: -0.029; with alisertib it was inactive: -0.044; in test [2], inactive: -0.03. Moreover, the log2 fold change is inactive: 0.009 with gefitinib, inactive: 0.045 in test [3], inactive: -0.004 with lapatinib and inactive: 0.151 with pictilisib.

As to SRC isoform 2 (UniProt P12931), the log2 fold change in test [1] is inactive: 0.197; with filanesib it was inactive: 0.229; with zotarolimus, inactive: -0.123; in the test with idasanutlin it was inactive: 0.119; in the test with alisertib, inactive: 0.01; in [2], inactive: 0.017. Also, the log2 fold change was inactive: 0.219 in test [3], inactive: 0.088 with lapatinib and inactive: 0.113 with pictilisib.

Regarding STARD3 (UniProt Q14849), the log2 fold change is inactive: 0 in test [1]; inactive: -0.147 with filanesib; inactive: -0.004 with zotarolimus; inactive: 0.109 with idasanutlin; inactive: 0.018 with alisertib; inactive: 0.038 in [2]. The log2 fold change with gefitinib is inactive: 0.075; in [3], inactive: 0.035; with lapatinib, inactive: 0.043; in the test with pictilisib, inactive: -0.047.

Regarding STAT3 (UniProt P40763), the log2 fold change in test [1] is inactive: 0.063; with filanesib it was inactive: -0.031; with zotarolimus, inactive: 0.086; with idasanutlin, inactive: -0.003; in the test with alisertib it was inactive: 0.013; in test [2], inactive: 0.023. The log2 fold change was inactive: 0 in the test with gefitinib, inactive: -0.039 in [3], inactive: 0.004 with lapatinib and inactive: 0.051 with pictilisib.

Regarding SRRT (UniProt Q9BXP5), the log2 fold change was inactive: 0.198 in [1]; inactive: -0.174 with filanesib; inactive: 0 in the test with zotarolimus; inactive: -0.103 in the test with idasanutlin; inactive: 0.065 with alisertib; inactive: 0.02 in test [2]. The log2 fold change in the test with gefitinib was inactive: 0.093; in test [3] it was inactive: 0; with lapatinib, inactive: 0; with pictilisib, inactive: -0.013.

Turning to SRSF6 (UniProt Q13247), the log2 fold change in test [1] is inactive: -0.209; in the test with filanesib it was inactive: 0.218; with zotarolimus, inactive: -0.118; in the test with idasanutlin, inactive: 0.375; in the test with alisertib, inactive: -0.105; in [2], inactive: -0.134. For the same target, the log2 fold change in the test with gefitinib is inactive: 0.033; in [3], inactive: -0.032; with lapatinib it was inactive: 0.163; with pictilisib it was inactive: -0.473.

Regarding ST8SIA6 (UniProt P61647), the log2 fold change in test [1] is inactive: -0.244; with filanesib it was inactive: -0.031; with idasanutlin it was inactive: 0.152; in the test with pictilisib, inactive: -0.03.

In the case of SSRP1 (UniProt Q08945), the log2 fold change was inactive: 0.118 in test [1]; inactive: 0.023 with filanesib; inactive: 0.036 with zotarolimus; inactive: -0.005 with idasanutlin; inactive: -0.037 with alisertib; inactive: -0.05 in test [2]. The log2 fold change is inactive: 0.028 with gefitinib, inactive: -0.014 in test [3], inactive: 0.008 with lapatinib and inactive: -0.026 with pictilisib.

For the target SPR (UniProt P35270), the log2 fold change in [1] is active: 0.794; in the test with filanesib, inactive: -0.087; with zotarolimus it was inactive: 0; in the test with idasanutlin it was inactive: -0.225; with alisertib, inactive: -0.051; in [2], inactive: -0.039. The log2 fold change in the test with gefitinib is inactive: -0.008; in test [3] it was inactive: 0.021; in the test with lapatinib, inactive: -0.031; with pictilisib, active: 0.681.

For SRSF3 (UniProt P84103), the log2 fold change is inactive: -0.226 in test [1]; inactive: 0.193 in the test with filanesib; inactive: -0.054 with zotarolimus; inactive: 0.217 with idasanutlin; inactive: -0.101 with alisertib; inactive: -0.011 in [2]. For the same target, the log2 fold change with gefitinib is inactive: -0.026; in [3] it was inactive: -0.009; with lapatinib, inactive: -0.006; with pictilisib it was inactive: -0.018.

Consider SRCAP (UniProt Q6ZRS2), for which the log2 fold change in test [1] was inactive: -0.083; in the test with filanesib, inactive: 0.097; with zotarolimus, inactive: -0.02; with alisertib it was inactive: -0.091; in test [2], inactive: -0.067; with gefitinib it was inactive: 0.198. The values for the log2 fold change (in [3]; in the test with lapatinib; with pictilisib) were inactive: 0.062, inactive: 0.049 and inactive: 0.015, respectively.

For the target SSB (UniProt E7ERC4), the log2 fold change is inactive: 0.494 in the test with alisertib, inactive: -0.37 in test [3] and inactive: -0.086 with pictilisib.

Turning to SPATS2L isoform 3 (UniProt Q9NUQ6), the log2 fold change with filanesib is inactive: 0.088; in the test with zotarolimus, inactive: 0.039; with idasanutlin, inactive: 0.486.
